PubChem BioAssay AID504784 | Drosophila RNAi Screening Center – 2011
Aim: 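Fly genes whose silencing alters how much lipid cells keep in droplets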 (primary screen). Cells: Drosophila Kc167 embryonic cells. Reagents: long dsRNA against Drosophila genes, about 250 ng dsRNA per well. Time to read-out: 4 days. Conditions: cells fed 400 µM oleic acid bound to BSA. Measured: 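Microscope images give a droplet-to-nucleus area ratio, taken as log and converted to a screen-wide B-score; higher values mean greater lipid storage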. Reading the numbers: droplet/nuclear area B-score: higher = more stored lipid (overstorage).
The deposit covers about 17,000 reagents; below is an unselected part of those with a known target gene and a result. 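Each column is one replicate's B-score; the combined score over replicates was not deposited, so single values may mislead.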 Further read-outs or replicates are left out here.

g [DRSC20335] — droplet/nuclear area B-score, replicate 1: -0.382
Pvr [DRSC03080] — droplet/nuclear area B-score, replicate 1: -0.916
Gabat [DRSC10846] — droplet/nuclear area B-score, replicate 1: 0.0176
smog [DRSC00334] — droplet/nuclear area B-score, replicate 1: -0.607
smog [DRSC00335] — droplet/nuclear area B-score, replicate 1: -2.03
smog [DRSC23053] — droplet/nuclear area B-score, replicate 1: 5.05
Prim2 [DRSC11610] — droplet/nuclear area B-score, replicate 1: 1.15
Sodh2 [DRSC16865] — droplet/nuclear area B-score, replicate 1: -0.111
CNMa [DRSC08405] — droplet/nuclear area B-score, replicate 1: -0.935
Ms [DRSC16041] — droplet/nuclear area B-score, replicate 1: -0.799
CG4630 [DRSC06874] — droplet/nuclear area B-score, replicate 1: 1.36
Hers [DRSC19429] — droplet/nuclear area B-score, replicate 1: -0.294
Hers [DRSC19676] — droplet/nuclear area B-score, replicate 1: -1.14
seq [DRSC06863] — droplet/nuclear area B-score, replicate 1: 1.95
CG15130 [DRSC02430] — droplet/nuclear area B-score, replicate 1: -1.42
dpr20 [DRSC08265] — droplet/nuclear area B-score, replicate 1: 2.88
CG18223 [DRSC10306] — droplet/nuclear area B-score, replicate 1: 0.181
epsilonTry [DRSC07611] — droplet/nuclear area B-score, replicate 1: -1.64
RhoGEF2 [DRSC07531] — droplet/nuclear area B-score, replicate 1: -0.655
tyn [DRSC20652] — droplet/nuclear area B-score, replicate 1: -1.16
Atg14 [DRSC14421] — droplet/nuclear area B-score, replicate 1: -0.385
CG3635 [DRSC03729] — droplet/nuclear area B-score, replicate 1: -0.959
CG1598 [DRSC06598] — droplet/nuclear area B-score, replicate 1: -1.9
PIG-F [DRSC11069] — droplet/nuclear area B-score, replicate 1: -0.184
CG42254 (retired record) [DRSC06194] — droplet/nuclear area B-score, replicate 1: -1.04
CG12522 [DRSC09088] — droplet/nuclear area B-score, replicate 1: -1.52
Ntl [DRSC03003] — droplet/nuclear area B-score, replicate 1: -0.485

4 successive entries already listed, for reference:
CG15130 [DRSC02430] — droplet/nuclear area B-score, replicate 1: -1.42
dpr20 [DRSC08265] — droplet/nuclear area B-score, replicate 1: 2.88
CG18223 [DRSC10306] — droplet/nuclear area B-score, replicate 1: 0.181
epsilonTry [DRSC07611] — droplet/nuclear area B-score, replicate 1: -1.64
